# Data published in PubChem BioAssay AID2685 (National Center for Advancing Translational Sciences (NCATS), 2010).
# The whole screen tested about 320,000 compounds, of which about 2,100 (0.66%) were called active. Calls follow the shape of the dose curve; as a rule, active = well fitted inhibition curve with a large enough effect in the signal ratio, with a control signal flat (not every such curve was filed as active); inconclusive = small, poorly fitted or top-dose-only effect, or effect the other way, or a change in a side signal; inactive = flat fitted curve, though single readings scatter; the % refers to the signal ratio. Inconclusive results, whose numbers are uncertain, are shown. Potencies beside an inconclusive call are fits to weak or partial responses and may not hold up.
# Test: qHTS Assay for Lipid Storage Modulators in Drosophila S3 Cells
# Details: BODIPY lipid droplet fluorescence, 18-24 h, cells fed with added oleic acid; lipid storage change, negative = inhibition: at 46.1 µM (top of the series) unless noted
# In short: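 Drosophila S3 cells got compounds at several concentrations plus oleic acid (400 uM solution). Laser-scanning cytometry with 488 nm excitation read lipid droplets at 500-530 nm and cells at 575-640 nm. Percent activity was relative to 20 uM Triacsin C.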
# % is scaled to controls: 0 for no effect and ±100 for the full control effect; potency is read from the fitted curve at half-maximal effect.
Structure (SMILES),"lipid storage change, negative = inhibition",Potency
COC(=O)C1(S(=O)(=O)c2ccc(C)cc2)CCOCC1,inconclusive: -24.6%,
CC(NC(=O)C1CCN(S(=O)(=O)N2CCCCCC2)CC1)c1ccccc1 (stereo unspecified),inconclusive: 16.4%,
COCC(=O)Nc1cccc(C(F)(F)F)c1,inconclusive: -33.7%,
CCOC(=O)C1=C(CC)Nc2ccccc2N=C1N,inconclusive: -9.23%,
O=C(CSC1=NCCN1)NC(c1ccccc1)c1ccccc1,inconclusive: -32.8%,
O=C(CN1CCSCC1)N/N=C/c1ccccc1F,,"inconclusive: 0.116 µM [falling, full curve, poor fit]"
Cc1cc(OC(=O)c2ccc(S(=O)(=O)N3CCOCC3)cc2)c([N+](=O)[O-])c(=O)[nH]1,inconclusive: -47.8%,
COc1ccc(S(=O)(=O)N2CCN(C(=O)c3ccc([N+](=O)[O-])o3)CC2)cc1,,"inconclusive: 4.61 µM [activator, single point]"
Cn1cnnc1SC/C(O)=C(\C#N)c1nc2ccccc2[nH]1,inconclusive: 16.2%,
CCC1Oc2ccc(C)cc2N(CC(=O)NCc2cc(OC)ccc2OC)C1=O (stereo unspecified),,"inconclusive: 0.366 µM [rising, partial curve, poor fit]"
CCOc1ccc(/C=N/OCC(=O)NCc2ccco2)cc1,inconclusive: 48.3%,
Cc1ccccc1Nc1nnc(-c2ccc(C(=O)NCCO)cc2)c2ccccc12,inconclusive: 0.277%,
Cc1ccc(S(=O)(=O)N(C)C)cc1NC(=O)COC(=O)CC1CCCC1,inconclusive: -41.9%,
O=c1c2ccccc2ncn1-c1ccccc1C(F)(F)F,,"inconclusive: 18.4 µM [activator, single point]"
CN1C(=O)/C(=N\OC(=O)c2ccccc2Cl)c2ccccc21,inconclusive: -66.8% [cytotoxic] [at 0.369 µM],
COc1ccc2cc(CN(CCO)C(=O)c3ccccc3F)c(=O)[nH]c2c1,,"inconclusive: 0.164 µM [falling, full curve, poor fit]"
O=C(/C=C/c1ccc(Br)cc1)N1CCN(c2cccc(C(F)(F)F)c2)CC1,,"inconclusive: 29.1 µM [falling, single point]"
CC12CCC(C(=O)NCc3ccccc3Cl)(C(Br)C1=O)C2(C)C (stereo unspecified),inconclusive: 1.79%,
CN(CC(=O)NC1(C)CCS(=O)(=O)C1)S(=O)(=O)c1ccc(Cl)cc1 (stereo unspecified),,"inconclusive: 6.51 µM [activator, partial curve]"
O=C(/C=C/c1ccc(Cl)cc1Cl)c1nc2ccccc2[nH]1,inconclusive: -16.8%,
O=C(N/N=C/CCc1ccccc1)C1CCCCC1,inconclusive: 1.01%,

# A run of entries of the results above, as a working copy:
Structure (SMILES),"lipid storage change, negative = inhibition",Potency
COc1ccc2cc(CN(CCO)C(=O)c3ccccc3F)c(=O)[nH]c2c1,,"inconclusive: 0.164 µM [falling, full curve, poor fit]"
O=C(/C=C/c1ccc(Br)cc1)N1CCN(c2cccc(C(F)(F)F)c2)CC1,,"inconclusive: 29.1 µM [falling, single point]"
